From patent US9981059B2 (Glytech, Inc., priority 2013, dated 2018) come the findings set out here.

A short description of this data set: general procedure: Fmoc solid-phase peptide synthesis; Rink amide PEGA resin; HCTU/DIPEA. As to conditions: conjugation step.

Take C(DiGlcNAc)-(RATARAEA)2: the conjugation yield result is reported as “yield 68%”.
